These results are taken from PMC12431657, “Discovery and mechanistic insights of dibenzoylmethane as a broad spectrum inhibitor of coronavirus” (PLOS Pathogens, 2025).

Structures can show the parent of a compound that is named as a salt. Where two headings read alike, the source gives them in different places. The campaign covered roughly 3,300 compounds. About 60 (2%) showed an effect of 50% or more. Some of the results follow.

The subject of the experiment is HCoV-OC43. The arrangement: species or system RD; HTS, protection from HCoV-OC43 induced cell death, luminescent cell viability (CellCounting-Lite 2.0), inhibition rate.

As for `Cc1cccc(C=O)c1` [m-Tolualdehyde], the “OC43 Inhibition rate” value (24 h, 10 µM; inhibitor) was -0.1%.
On the same count and under the same terms, the value for `COC[C@]12CN(C)C3[C@@H]4[C@H](OC)[C@H]1[C@@]3([C@@H](OC)C[C@H]2O)[C@]1(O)C[C@@]2(O)[C@H](OC(=O)c3ccccc3)[C@@H]1[C@]4(OC(C)=O)[C@@H](O)[C@@H]2OC` [Beiwutine] was 2.9%; that for `C[C@]12CC[C@H](O)C[C@@H]1CC[C@@H]1[C@@H]2CC[C@]2(C)C(=O)CC[C@@H]12` [Epiandrosterone] was -0.1%.
Take `C[C@]12CC[C@H](O)C[C@@]1(O)CC[C@@H]1[C@@H]2CC[C@]2(C)[C@@H](c3ccc(=O)oc3)[C@@H](O)[C@H]3O[C@]132` [Desacetylcinobufotalin]: the “OC43 Inhibition rate” value (24 h, 10 µM; inhibitor) was determined as 6.4%.
Still for that read-out and setting: the value for `C[C@H]1CC[C@H]2[C@H](C)[C@@H]3CC[C@@H]4[C@@H](C[C@H]5[C@H]4C[C@@H](O)[C@H]4C[C@@H](O)CC[C@@]45C)[C@@H]3CN2C1` [Hupehenine] was -1.2%.
For the compound `COc1cc(CCN)ccc1O` [3-Methoxytyramine (hydrochloride)], where the note is “24 h, 10 µM, inhibitor”, the “OC43 Inhibition rate” value was -0.5%.
As to `CC(=O)C(=O)c1ccccc1` [1-Phenylpropane-1,2-dione], the “OC43 Inhibition rate” value (24 h, 10 µM; inhibitor) came out at 5%.
Still for that read-out and setting: under `C=CCc1cc(OC)c2c(c1)OCO2` [Myristicin] stands -0.6%; under `C=C1CC[C@H]2[C@@H](/C=C(\C)C(=O)[C@@]3(O)C[C@H](C)[C@H](O)[C@@H]3[C@@H]1O)C2(C)C` [Lathyrol], -0.3%.
Still for that read-out and setting: under `C=C(C)[C@@H]1[C@H]2OC(=O)[C@@H]1[C@]1(O)C[C@H]3O[C@]34C(=O)O[C@H]2[C@]14C` [Picrotoxinin] stands 0.5.
On to `COCc1c(CO)cnc(C)c1O` [4'-O-Methylpyridoxine], for which the “OC43 Inhibition rate” value (24 h, 10 µM; inhibitor) is reported as -1.3%.
In the case of `CC(C)C[C@H](NP(=O)(O)O[C@@H]1O[C@@H](C)[C@H](O)[C@@H](O)[C@H]1O)C(=O)N[C@@H](Cc1c[nH]c2ccccc12)C(=O)O` [Phosphoramidon (Disodium)], the “OC43 Inhibition rate” value (24 h, 10 µM; inhibitor) is 1.6%.
In the case of `C=C[C@@]12CN(C)[C@H]3C[C@]14C(=Nc1ccccc14)[C@@H]1C[C@@H]2[C@@H]3CO1` [Koumine], the “OC43 Inhibition rate” value (24 h, 10 µM; inhibitor) is -0.3%.
Same read-out and setting: under `O=C(O)COc1ccccc1` [Phenoxyacetic acid] stands 0.6%; under `CCN1C[C@@]2(COC)[C@H]3[C@@H](OC)[C@H]4[C@@H]1[C@]3([C@@H](OC)C[C@H]2OC(C)=O)[C@@H]1C[C@@]2(O)[C@H](OC(=O)c3ccccc3)[C@@H]1[C@]4(OC(C)=O)[C@@H](O)[C@@H]2OC` [Flaconitine], 0.4%.
On the same count and under the same terms, the value for `CC(=O)O[C@H]1[C@H]2O[C@]23[C@@H]2CC[C@@H]4C[C@@H](O)CC[C@]4(C)[C@H]2CC[C@]3(C)[C@H]1c1ccc(=O)oc1` [Cinobufagin] was 3.3; that for `C[C@]12CC[C@@H](O)C[C@@H]1CC[C@@H]1[C@@H]2[C@@H](O)C[C@]2(C)C(=O)CC[C@@H]12` [11β-Hydroxyandrosterone] was 16.5%.
On the same count and under the same terms, under `CCN1C[C@]2(COC)[C@H](O)C[C@H](OC)[C@]34C1[C@H]([C@H](OC)[C@H]23)[C@@]1(OC(C)=O)C[C@H](OC)[C@@]2(O)C[C@@H]4[C@@H]1[C@H]2OC(=O)c1ccc(OC)cc1` [Yunaconitine] stands 0%; under `COc1ccc(C(=O)O[C@H]2CC[C@@]3(C)[C@@H]4CC[C@H]5[C@]6(O)C[C@H](O)[C@@]7(O)[C@@H](CN8C[C@@H](C)CC[C@H]8[C@@]7(C)O)[C@]6(O)C[C@@]53O[C@]24O)cc1OC` [Veratridine], 2.4%.
With `CC(C)=CCC[C@](C)(O)[C@H]1CC[C@]2(C)[C@@H]1[C@H](O)C[C@@H]1[C@@]3(C)CC[C@H](O)C(C)(C)[C@@H]3[C@@H](O[C@@H]3O[C@H](CO)[C@@H](O)[C@H](O)[C@H]3O)C[C@]12C` [Ginsenoside Rh1], where the note is “24 h, 10 µM; inhibitor”, the “OC43 Inhibition rate” value is given as 0.5%.
For `COc1ccc(C=O)cc1O` [Isovanillin], the “OC43 Inhibition rate” value (24 h, 10 µM; inhibitor) is reported as 0.2%.
Same read-out and setting: under `O=c1cccc2n1CC1CC2CN2CCCCC12` (stereo not drawn) [Thermopsine] stands 0.3%.
Regarding `CC(=O)/C=C/c1ccccc1` [trans-Benzylideneacetone], the “OC43 Inhibition rate” value (24 h, 10 µM, inhibitor) is 0.1%.
As to `CN(C)NC(=O)CCC(=O)O` [Daminozide], where the note is “24 h, 10 µM; inhibitor”, the “OC43 Inhibition rate” value was 3.1%.
On to `C/C=C(\C)C(=O)N[C@@H](c1ccccc1)[C@@H](O)C(=O)O[C@H]1C[C@@]2(O)[C@@H](OC(=O)c3ccccc3)[C@@H]3[C@]4(OC(C)=O)CO[C@@H]4C[C@H](O)[C@@]3(C)C(=O)[C@H](OC(C)=O)C(=C1C)C2(C)C` [Cephalomannine], for which, where the note is “24 h, 10 µM; inhibitor”, the “OC43 Inhibition rate” value is -0.5%.
On the same count and under the same terms, the value for `CCN(CC)N=O` [N-Nitrosodiethylamine] was -0.2%; that for `C[C@@H](NC(=O)[C@@H](N)Cc1ccc(O)cc1)C(=O)N[C@@H](Cc1ccccc1)C(=O)NCC(=O)N[C@@H](Cc1ccc(O)cc1)C(=O)N1CCC[C@H]1C(=O)N[C@@H](CO)C(N)=O` [Dermorphin] was -1.9.
As for `CCC(=O)O[C@H]1[C@H](O[C@@H]2[C@@H](C)[C@H](O[C@H]3C[C@@](C)(OC)[C@@H](O)[C@H](C)O3)[C@@H](C)C(=O)O[C@H](CC)[C@@](C)(O)[C@H](O)[C@@H](C)C(=O)[C@H](C)C[C@@]2(C)O)O[C@H](C)C[C@@H]1N(C)C` [Erythromycin estolate, erythromycin estolate], the “OC43 Inhibition rate” value (24 h post infection, 1 h compound pre-incubation; 10 µM; inhibitor) is given as 99.7%.
As for `C=C1[C@@H]2CC[C@H]3[C@]4(C)C[C@H](O[C@H]5O[C@H](CO)[C@@H](OS(=O)(=O)O)[C@H](OS(=O)(=O)O)[C@H]5OC(=O)CC(C)C)C[C@@H](C(=O)O)[C@H]4CC[C@]3(C2)[C@H]1O` [Atractyloside (potassium salt)], the “OC43 Inhibition rate” value (24 h, 10 µM; inhibitor) is -0.1%.
Same read-out and setting: under `COc1cc2c3c(c1OC)-c1ccccc1C[C@H]3[N+](C)(C)CC2` [N-Methylnuciferine] stands -4.6%.
